Experimental data: PubChem BioAssay AID1224830 (NIAID, 2016)
Shown is an unselected part of about 18,000 reagents tested. Of all reagents, about 2,900 (16%) were called active. 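Calls are made per well; low scores hint the gene aids the LPS response, high scores that it dampens it.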 Unmarked entries are inactive. Repeated entries: four replicate wells of each siRNA pool.

Aim: 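Regulators of TLR4 signalling towards TNF-alpha in macrophage-like cells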 (primary screen)
Cells: human THP-1 monocytic leukaemia cells, TNF dual-luciferase reporter clone, PMA-differentiated to macrophage-like cells
Knock-down reagent: siRNA pool against human genes, 50 nM
Time to read-out: LPS for 4 h, given about 3 days after siRNA transfection
Treatment: bacterial LPS (TLR4 ligand), 10 ng/ml
Measurement: 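TNF firefly reporter luminescence divided by renilla, normalised to the plate median, then turned into a robust z-score for each replicate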
Scale: TNF reporter robust z-score: higher = stronger TNF reporter response to LPS
Call rule: 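Each well counts as active if its z-score is over 2.8 or under -1.5; controls are left without a call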

Gene | TNF reporter robust z-score
TERF2IP (GeneID 54386) | -0.25
TERF2IP (GeneID 54386) | -0.27
TERF2IP (GeneID 54386) | -0.37
TERF2IP (GeneID 54386) | -0.75
BRSK2 (GeneID 9024) | -0.98
BRSK2 (GeneID 9024) | -0.7
BRSK2 (GeneID 9024) | -1.18
BRSK2 (GeneID 9024) | -0.22
TSPYL4 (GeneID 23270) | 0.63
TSPYL4 (GeneID 23270) | 1.24
TSPYL4 (GeneID 23270) | 1.36
TSPYL4 (GeneID 23270) | 1.97
PHTF2 (GeneID 57157) | -0.74
PHTF2 (GeneID 57157) | -0.13
PHTF2 (GeneID 57157) | -0.68
PHTF2 (GeneID 57157) | 0.02
PGLYRP1 (GeneID 8993) | -0.22
PGLYRP1 (GeneID 8993) | -0.19
PGLYRP1 (GeneID 8993) | 0.17
PGLYRP1 (GeneID 8993) | 0.13
C1QTNF6 (GeneID 114904) | -1.87 (active)
C1QTNF6 (GeneID 114904) | -1.95 (active)
C1QTNF6 (GeneID 114904) | -1.7 (active)
C1QTNF6 (GeneID 114904) | -1.59 (active)
F5 (GeneID 2153) | -0.84
F5 (GeneID 2153) | -0.19
F5 (GeneID 2153) | 0.88
F5 (GeneID 2153) | -0.81
SHISAL2A (GeneID 348378) | -0.14
SHISAL2A (GeneID 348378) | 2.2
SHISAL2A (GeneID 348378) | -0.09
SHISAL2A (GeneID 348378) | 0.83
HPS1 (GeneID 3257) | 2.04
HPS1 (GeneID 3257) | 1.81
HPS1 (GeneID 3257) | 1.6
HPS1 (GeneID 3257) | 3.31 (active)
LONP1 (GeneID 9361) | 0.12
LONP1 (GeneID 9361) | -0.17
LONP1 (GeneID 9361) | 0.33
LONP1 (GeneID 9361) | 0.31
METTL23 (GeneID 124512) | -0.43
METTL23 (GeneID 124512) | -0.56
METTL23 (GeneID 124512) | -0.35
METTL23 (GeneID 124512) | -0.77
CAB39L (GeneID 81617) | -0.33
CAB39L (GeneID 81617) | -0.55
CAB39L (GeneID 81617) | -1.19
CAB39L (GeneID 81617) | -0.28

5 of these entries, set out differently.
TERF2IP (GeneID 54386): TNF reporter robust z-score = -0.37
TERF2IP (GeneID 54386): TNF reporter robust z-score = -0.75
BRSK2 (GeneID 9024): TNF reporter robust z-score = -0.98
BRSK2 (GeneID 9024): TNF reporter robust z-score = -0.7
BRSK2 (GeneID 9024): TNF reporter robust z-score = -1.18
